From PubChem BioAssay AID320 (DTP/NCI, 2004) come the findings set out here.

Molecules are shown by their SMILES. The list does not hold the whole screen: it gathers tests that were run many times, whatever their T/C, doses with no T/C, and many T/C values between a quarter and a half above the control. Other doses and runs of a compound stand elsewhere. T/C: endpoint of the treated group in % of that of the vehicle group. Some doses have a count of surviving animals in place of a T/C: the source files T/C as zero there, which appears to mark a toxic dose or a test without result, not a measured value. Some survivor counts are full or nearly so, which does not show that the dose was tolerated: survival well below the control is almost never listed, so the zero probably covers shortened survival too. Counts of survivors are from the toxicity check (mostly the fifth day) where no day follows; animals may have died later. Schedule codes are those of the source, taken here to give the interval after Q, in days (D) or hours (H), and the number of doses after X. Some doses were run more than once; the values are given in rising order. For survival time, the PubChem record calls one and a half times the control and up active, and a quarter to a half above the control has no call in these data; cut-offs in other NCI protocols can differ. Some T/C values are followed by the survivors on the day toxicity was checked, most often the fifth; without a count, all were alive then.

This assay deals with BDF1 mice, P329 reticulum cell sarcoma ip, survival T/C. As to the kind of experiment: NCI In Vivo Anticancer Drug Screen. Data for tumor model P329 Reticulum Cell Sarcoma (intraperitoneal) in B6D2F1 (BDF1) mice. The following applies: T/C endpoint: median survival time, higher T/C = longer survival. The procedure: The antitumor activity of compounds was measured in mice bearing transplantable tumors. Survival or tumor size were measured and the results are expressed as the measurement made in the treated group (T) divided by the measurement made in the vehicle treated control group (C). The tumor model used in this assay is P329 Reticulum Cell Sarcoma (intraperitoneal) in B6D2F1 (BDF1) mice

Setting [1] is: dose: 0.25 mg/kg/injection, schedule: Q01DX010 (ip), vehicle: saline.
Where [2] appears, read: dose: 2.0 mg/kg/injection, schedule: Q01DX010 (ip), vehicle: saline.
Setting [3] is: dose: 32.0 mg/kg/injection, schedule: Q01DX010 (ip), vehicle: saline.
Where [4] appears, read: dose: 64.0 mg/kg/injection, schedule: Q01DX010 (ip), vehicle: saline.
The mark [5] stands for this setting: dose: 2.5 mg/kg/injection, schedule: Q01DX010 (ip), vehicle: saline.
[6] abbreviates: dose: 5.0 mg/kg/injection, schedule: Q01DX010 (ip), vehicle: saline.
Where [7] appears, read: dose: 20.0 mg/kg/injection, schedule: Q01DX010 (ip), vehicle: saline.
Where [8] appears, read: dose: 16.0 mg/kg/injection, schedule: Q01DX010 (ip), vehicle: saline.
Setting [9] is: dose: 25.0 mg/kg/injection, schedule: Q01DX010 (ip), vehicle: saline.
The mark [10] stands for this setting: dose: 400.0 mg/kg/injection, schedule: Q01DX010 (ip), vehicle: saline.
The mark [11] stands for this setting: dose: 100.0 mg/kg/injection, schedule: Q01DX010 (ip), vehicle: saline.
[12] abbreviates: dose: 200.0 mg/kg/injection, schedule: Q01DX010 (ip), vehicle: saline.

In the case of `CO[C@H](C(=O)[C@@H](O)[C@@H](C)O)[C@@H]1Cc2cc3cc(OC4CC(OC5CC(O)C(O)C(C)O5)C(O)C(C)O4)c(C)c(O)c3c(O)c2C(=O)[C@H]1OC1CC(OC2CC(OC3CC(C)(O)C(O)C(C)O3)C(O)C(C)O2)C(O)C(C)O1` (some centres not stated), the survivor count is 0 of 10 under setting [1] and 4 of 10 under setting [2].
In the case of `C1CN1c1nc(N2CC2)nc(N2CC2)n1`, the T/C is, setting by setting: under setting [1], 125 % of control; (dose: 0.5 mg/kg/injection, schedule: Q01DX010 (ip), vehicle: saline) 146 % of control. Also, the survivor count (dose: 1.0 mg/kg/injection, schedule: Q01DX010 (ip), vehicle: saline) is reported as 6 of 6.
Turning to `Nc1nc(SCc2ccccc2)c2[nH]cnc2n1`, the T/C under setting [3] was 128 % of control. Under setting [4], the survivor count is given as 6 of 6.
Take `Oc1cc(CN(CCCl)CCCl)c(O)cc1CN(CCCl)CCCl`: under “dose: 1.25 mg/kg/injection, schedule: Q01DX010 (ip), vehicle: saline”, the survivor count is given as 3 of 6. The T/C under setting [5] was 132 % of control [4 of 6 alive].
In the case of `Cn1cnc([N+](=O)[O-])c1Sc1nc(N)nc2nc[nH]c12`, the T/C under setting [6] was 139 % of control. In addition, the survivor count under setting [7] is 6 of 6.
As for `COc1ccc2c(c1OC)C(=O)O[C@@H]2[C@H]1c2c(cc3c(c2OC)OCO3)CCN1C`, the survivor count is, setting by setting: (dose: 7.8 mg/kg/injection, schedule: Q01DX010 (ip), vehicle: saline) 6 of 6; (dose: 15.6 mg/kg/injection, schedule: Q01DX010 (ip), vehicle: saline) 6 of 6; (dose: 31.3 mg/kg/injection, schedule: Q01DX010 (ip), vehicle: saline) 5 of 6.
As for `c1ccc(CNc2ncnc3[nH]ncc23)cc1`, the T/C under setting [8] is 130 % of control. The survivor count was 6 of 6 under setting [3] and 6 of 6 under setting [4].
Turning to `C[C@]12C=CC(=O)C=C1CC[C@@H]1[C@@H]2C(=O)C[C@@]2(C)[C@H]1CC[C@]2(O)C(=O)CO`, the survivor count is 6 of 6 (dose: 25.0 mg/kg/injection, schedule: Q01DX010 (sc), vehicle: steroid suspending solution); 6 of 6 (dose: 50.0 mg/kg/injection, schedule: Q01DX010 (sc), vehicle: steroid suspending solution); 6 of 6 (dose: 100.0 mg/kg/injection, schedule: Q01DX010 (sc), vehicle: steroid suspending solution); 5 of 6 and 6 of 6 (dose: 200.0 mg/kg/injection, schedule: Q01DX010 (sc), vehicle: steroid suspending solution).
Consider `N#[N+]c1cnc([O-])[nH]c1=O`, for which the T/C is 137 % of control under setting [5]; 140 % of control under setting [6]; 137 % of control (dose: 10.0 mg/kg/injection, schedule: Q01DX010 (ip), vehicle: saline). Moreover, the survivor count under setting [7] is 0 of 6.
`O=C(O)CCCc1ccc(N(CCCl)CCCl)cc1`: the survivor count under setting [9] is given as 0 of 6.
For the molecule `Nc1nc(=S)c2ncn(C3OC(CO)C(O)C3O)c2[nH]1` (configuration not stated), the T/C under setting [2] was 143 % of control. Moreover, where the note is “dose: 8.0 mg/kg/injection, schedule: Q01DX010 (ip), vehicle: saline”, the survivor count was 6 of 6.
Regarding `CS(=O)(=O)OCC(O)C(O)C(O)C(O)COS(C)(=O)=O` (configuration not stated), the T/C under setting [10] is 130 % of control.
For `CN(Cc1cnc2nc(N)nc(N)c2n1)c1ccc(C(=O)N[C@@H](CCC(=O)O)C(=O)O)cc1`, under “dose: 0.75 mg/kg/injection, schedule: Q01DX010 (ip), vehicle: other”, the T/C is 126 and 137 % of control. The survivor count (dose: 3.0 mg/kg/injection, schedule: Q01DX010 (ip), vehicle: other) was 5 of 6 and 6 of 6.
`O=P1(N(CCCl)CCCl)NCCCO1` (configuration not stated): the survivor count runs as follows: (dose: 22.5 mg/kg/injection, schedule: Q01DX010 (ip), vehicle: saline) 6 of 6; (dose: 45.0 mg/kg/injection, schedule: Q01DX010 (ip), vehicle: saline) 6 of 6; (dose: 90.0 mg/kg/injection, schedule: Q01DX010 (ip), vehicle: saline) 6 of 6; (dose: 180.0 mg/kg/injection, schedule: Q01DX010 (ip), vehicle: saline) 6 of 6.
Turning to `S=c1nc[nH]c2nc[nH]c12`, the T/C runs as follows: (dose: 5.0 mg/kg/injection, schedule: Q01DX010 (ip), vehicle: alkali diluted with saline) 131 and 138 % of control; (dose: 10.0 mg/kg/injection, schedule: Q01DX010 (ip), vehicle: alkali diluted with saline) 131 and 146 % of control; (dose: 20.0 mg/kg/injection, schedule: Q01DX010 (ip), vehicle: alkali diluted with saline) 148 % of control; (dose: 40.0 mg/kg/injection, schedule: Q01DX010 (ip), vehicle: alkali diluted with saline) 145 and 147 % of control; (dose: 80.0 mg/kg/injection, schedule: Q01DX010 (ip), vehicle: alkali diluted with saline) 127 % of control.
As for `O=c1cnn(C2OC(CO)C(O)C2O)c(=O)[nH]1` (configuration not stated), the T/C is, setting by setting: under setting [10], 133 % of control; (dose: 800.0 mg/kg/injection, schedule: Q01DX010 (ip), vehicle: saline) 140 % of control. Also, the survivor count (dose: 1600.0 mg/kg/injection, schedule: Q01DX010 (ip), vehicle: saline) is given as 6 of 6.
Consider `CC(=O)Nc1ccc2nc3ccc(NC(C)=O)cc3[n+](-c3ccccc3)c2c1`, for which the T/C under setting [11] is 128 % of control and the T/C under setting [12] is 142 % of control.
As for `CC(CCC(C)OS(C)(=O)=O)OS(C)(=O)=O` (configuration not stated), the survivor count under setting [8] is reported as 6 of 6.
For `CCN(CC)CCNc1ccc(C)c2sc3ccccc3c(=O)c12`, the T/C (dose: 50.0 mg/kg/injection, schedule: Q01DX010 (ip), vehicle: saline) is 128 [5 of 6 alive] and 134 % of control. Further, the survivor count was 6 of 6 under setting [11]; 4 of 6 and 6 of 6 under setting [12].
Regarding `O=NN(CCCl)C(=O)NCCCl`, the T/C runs as follows: (dose: 3.13 mg/kg/injection, schedule: Q01DX010 (ip), vehicle: saline) 146 % of control; (dose: 12.5 mg/kg/injection, schedule: Q01DX010 (ip), vehicle: saline) 129 % of control. The survivor count under setting [9] was 5 of 6 and 6 of 6.
